Results on one sequence are retold here after publication PMC7794433, “Peptide signaling without feedback in signal production operates as a true quorum sensing communication system in Bacillus subtilis” (Communications Biology, 2021).

This data set can be described thus: ComX concentration in spent medium of ComX-overexpressing E. coli ED367. Details: species or system Escherichia coli.

As to “ADPITRQWGD [ComX, isoprenylated (farnesylated) quorum sensing signal peptide of B. subtilis, HPLC purified from E. coli ED367]”, where the note is “E. coli ED367 overexpression”, the “ComX concentration per optical density in E. coli spent media” value worked out at 200 nM a.u.^‒1. Moreover, the “ComX concentration in E. coli relative to B. subtilis” value (per optical density) was “about 20 times”.
